Measurements reported in PubChem BioAssay AID720505 (Drosophila RNAi Screening Center, 2013)

- Assay: 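Fly regulators or components of the CRAC channel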 (primary screen)
- System: Drosophila S2R+ cells
- Reagents: long dsRNA against Drosophila genes
- Challenge: thapsigargin (2 µM) in calcium-free buffer to empty internal stores, then 2 mM calcium added back
- Detection: 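Fluo-4 signal in 384-well plates read on a FLIPR after thapsigargin (2 µM, calcium-free) store depletion and 2 mM calcium add-back; unnormalised mean endpoint per well; screen run twice, selected wells retested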
- Scale: calcium signal and retest calcium signal: higher = more calcium entry after store depletion
- Call rule: 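Knock-downs counted as hits when calcium entry dropped relative to STIM1 positive and Rho1 negative controls present on each plate; roughly 1500 genes called, with reductions of differing size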
- Meaning of the calls: active = called as lowering calcium entry; inactive = not called
The screen tested about 20,000 reagents; below is an unselected part of those with a known target gene and a result. Of all reagents, about 2,100 (10%) were called active. 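Raw plate signals without normalisation; calls rest on control-based scores that were not deposited; replicate 2 separates called from uncalled poorly.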 A plus sign joins genes that one reagent is predicted to hit. No sequences are given here. The record does not give: the amount of reagent, the time to read-out.

Fkbp59 [DRSC03323] → calcium signal, replicate 1 = 171; calcium signal, replicate 2 = 174; Call = inactive
Rad1 + Sws1 [DRSC00778] → calcium signal, replicate 1 = 156; calcium signal, replicate 2 = 192; Call = inactive
CG7772 [DRSC20056] → calcium signal, replicate 1 = 176; calcium signal, replicate 2 = 107; Call = inactive
yki [DRSC04437] → calcium signal, replicate 1 = 184; calcium signal, replicate 2 = 109; Call = inactive
rtp [DRSC12132] → calcium signal, replicate 1 = 60.5; calcium signal, replicate 2 = 118; Call = active
term [DRSC21730] → calcium signal, replicate 1 = 152; calcium signal, replicate 2 = 112; Call = inactive
LPCAT [DRSC18157] → calcium signal, replicate 1 = 54.1; calcium signal, replicate 2 = 76.6; Call = active
LPCAT [DRSC18257] → calcium signal, replicate 1 = 128; calcium signal, replicate 2 = 108; Call = inactive
l(3)05822 [DRSC16202] → calcium signal, replicate 1 = 202; calcium signal, replicate 2 = 316; Call = inactive
ND-51L1 [DRSC06072] → calcium signal, replicate 1 = 143; calcium signal, replicate 2 = 146; Call = inactive
Ac13E [DRSC19325] → calcium signal, replicate 1 = 74.6; calcium signal, replicate 2 = 104; Call = inactive
Ugt37D1 [DRSC02645] → calcium signal, replicate 1 = 117; calcium signal, replicate 2 = 89.3; Call = inactive
CG9776 [DRSC12127] → calcium signal, replicate 1 = 85; calcium signal, replicate 2 = 128; Call = inactive
CG12126 [DRSC06103] → calcium signal, replicate 1 = 145; calcium signal, replicate 2 = 193; Call = inactive
Reph [DRSC00634] → calcium signal, replicate 1 = 104; calcium signal, replicate 2 = 190; Call = inactive
Reph [DRSC22031] → calcium signal, replicate 1 = 154; calcium signal, replicate 2 = 280; Call = inactive
Chi [DRSC04602] → calcium signal, replicate 1 = 159; calcium signal, replicate 2 = 83.9; Call = inactive
drd [DRSC19343] → calcium signal, replicate 1 = 97; calcium signal, replicate 2 = 93.5; Call = inactive
drd [DRSC21466] → calcium signal, replicate 1 = 112; calcium signal, replicate 2 = 94.7; Call = inactive
Vsx2 [DRSC17397] → calcium signal, replicate 1 = 9471; calcium signal, replicate 2 = 165; Call = inactive
Vsx2 [DRSC18087] → calcium signal, replicate 1 = 125; calcium signal, replicate 2 = 142; Call = inactive
Vsx2 [DRSC18088] → calcium signal, replicate 1 = 140; calcium signal, replicate 2 = 135; retest calcium signal, replicate 1 = 6176; retest calcium signal, replicate 2 = 99.3; Call = inactive
Vsx2 [DRSC18089] → calcium signal, replicate 1 = 104; calcium signal, replicate 2 = 156; retest calcium signal, replicate 1 = 140; retest calcium signal, replicate 2 = 5538; Call = active
Vsx2 [DRSC23089] → calcium signal, replicate 1 = 96.8; calcium signal, replicate 2 = 136; Call = inactive
Vsx2 [DRSC23273] → calcium signal, replicate 1 = 100; calcium signal, replicate 2 = 105; Call = inactive
CG13082 [DRSC02186] → calcium signal, replicate 1 = 161; calcium signal, replicate 2 = 103; Call = inactive
Etfb [DRSC16324] → calcium signal, replicate 1 = 93.8; calcium signal, replicate 2 = 122; Call = inactive
alpha-Est3 [DRSC12615] → calcium signal, replicate 1 = 101; calcium signal, replicate 2 = 118; Call = inactive
